Patent US20220026420A1, “MOLECULES AND METHODS FOR IMPROVED IMMUNODETECTION OF SMALL MOLECULES SUCH AS HISTAMINE” (PRESIDENT AND FELLOWS OF HARVARD COLLEGE, priority 2018, published 2022)

How the values were obtained:
[1] = tested on: anti-histamine antibody; assay: 5-minute electrochemical assay in spiked human plasma samples; assay type: binding
Description: The Immuno-assay developed on the ELISA plates using PEG-dual Histidine was translated to an electrochemical platform to develop a biosensor for free histamine detection in human plasma samples.

[2] = tested on: anti-histamine antibody; assay: Competitive histamine ELISA with PEG linkers on streptavidin plates, anti-IgG HRP detection; assay type: binding; settings: 5 min incubation of anti-histamine antibody, FIGS. 17A, 17B
Procedure: To identify an antibody that recognizes free histamine with improved (lower) binding affinities, we used the PEG-mono-histidine linker (Structure 1) as a target with antibodies that we previously screened with BSA-histamine, i.e., the antibodies listed in FIG. 3A. […] The monovalent histidine linker (25 μM) 86 was added for 1 hour, and then 5 μg ml^−1 anti-histamine antibody was incubated with different concentrations of soluble histamine for 1 hour at room temperature on a shaker 88. Finally, anti-IgG labelled HRP 810 was used to detect the bound antibodies.
The monovalent histidine linker (25 μM) 86 was added for 1 hour, and then 5 μg ml^−1 anti-histamine antibody was incubated with different concentrations of soluble histamine for 1 hour at room temperature on a shaker 88. Finally, anti-IgG labelled HRP 810 was used to detect the bound antibodies.
Histamine detection assay could be performed in two formats. The first format includes the immobilization of histamine conjugates to the solid support while the second format includes the immobilization of anti-histamine antibody on the solid support. For the immobilization of histamine conjugates the immobilization sample was prepared in 0.2 M carbonate-bicarbonate buffer (pH 9.4). Immobilisation samples herein refers to BSA-histamine, Streptavidin, and not limited to BSA-Histidine Samples. […]

Compound `NC(=O)C(CCCCNC(=O)C(CCCCNC(=O)C(N)Cc1c[nH]cn1)NC(=O)C(N)Cc1c[nH]cn1)NC(=O)CCOCCOCCOCCOCCNC(=O)CCCCC1SC[C@H]2NC(=O)N[C@@H]12` (stereo partly shown) [PEG-dual Histidine, Biotin-PEG-Dual-Histidine] has a current ([1]; 0 nM histamine) of 439 nA and a current ([1]; 3.75 nM histamine) of 278 nA.
`NC(=O)C(CCCCNC(=O)C(CCCCNC(=O)C(CCCCNC(=O)C(CCCCNC(=O)C(N)Cc1c[nH]cn1)NC(=O)C(N)Cc1c[nH]cn1)NC(=O)C(CCCCNC(=O)C(N)Cc1c[nH]cn1)NC(=O)C(N)Cc1c[nH]cn1)NC(=O)C(CCCCNC(=O)N(CCCCNC(=O)C(N)Cc1c[nH]cn1)NC(=O)C(N)Cc1c[nH]cn1)NC(=O)C(CCCCNC(=O)C(N)Cc1c[nH]cn1)NC(=O)C(N)Cc1c[nH]cn1)NC(=O)CCOCCOCCOCCOCCNC(=O)CCCCC1SC[C@H]2NC(=O)N[C@@H]12` (stereo partly shown) [Structure 4, Biotin-PEG-Octo-Histidine] was tested, and the “deviation from the trend line in detecting free histamine” value [2] was “higher standard deviation from the trend line”.
In the case of Biotin-PEG-Four Histidine [Structure 3], the “deviation from the trend line in detecting free histamine” value [2] is reported as “higher standard deviation from the trend line”.
